Laboratory results reported in paper PMC12564422.

Legend:
[1] = tested on: EGFR (epidermal growth factor receptor); assay: competition (fluorescence; reversed assay, EGFR before Atto); conditions: aptamer on AuNP, Protocol AREV, EGFR 0.88 nM, Atto 120 nM; 3'-thiol; about 50 nm AuNPs, resuspended in water; aptamer M and Atto 1.2e-7 M, EGFR 880 pM, 1 h incubation; Tris-EDTA buffer listed among materials; commercial protein; single-stranded DNA
[2] = tested on: EGFR (epidermal growth factor receptor); assay: competition (fluorescence displacement); conditions: on AuNP, 3'-thiol on strand 1, about 50 nm AuNPs, resuspended in water, aptamer M and Atto 1.2e-7 M, EGFR 880 pM, 1 h incubation, Tris-EDTA buffer listed among materials, commercial protein, label: 5'-ATTO 647N on strand 2
[3] = tested on: EGFR (epidermal growth factor receptor); assay: competition (fluorescence recovery by displacement of Atto strand); conditions: on AuNP, Protocol A, mix +318% vs RES; 3'-thiol on strand 1; about 50 nm AuNPs, resuspended in water; aptamer M and Atto 1.2e-7 M, EGFR 880 pM, 1 h incubation; Tris-EDTA buffer listed among materials; commercial protein; label: 5'-ATTO 647N on strand 2

Row | Sequence | binding result [1] | binding result ([2]; Protocol B (one intermediate wash), partial displacement, SPN +22%) | binding result ([2]; Protocol C (final wash only), Atto displaced into supernatant) | binding result [3]
1 | GGACGGATTTAATCGCCGTAGAAAAGCATGTCAAAGCCGGAACCGTCC [aptamer M (EGFR-specific)] | binds | – | – | –
2 | GGACGGATTTAATCGCCGTAGAAAAGCATGTCAAAGCCGGAACCGTCC / GCTTTTCTACGGC [aptamer M / Atto complementary oligomer duplex] | – | binds | binds | binds

The exact form of at least one protein or probe is not confirmed.
